Article PMC4772808, “Insights from the reconstitution of the divergent outer kinetochore of Drosophila melanogaster” (Open Biology, 2016)

Sequences of proteins named here, by UniProt entry; tags and fusion partners are left off. A change or cut given only in a name is not applied to a line headed by its entry.
UniProt Q7JZC9: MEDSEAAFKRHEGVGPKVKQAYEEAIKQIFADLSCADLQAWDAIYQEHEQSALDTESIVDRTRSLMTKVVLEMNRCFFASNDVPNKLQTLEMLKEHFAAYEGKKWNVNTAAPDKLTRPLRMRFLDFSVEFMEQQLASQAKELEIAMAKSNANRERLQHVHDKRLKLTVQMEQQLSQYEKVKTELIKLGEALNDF
UniProt Q8IPW3: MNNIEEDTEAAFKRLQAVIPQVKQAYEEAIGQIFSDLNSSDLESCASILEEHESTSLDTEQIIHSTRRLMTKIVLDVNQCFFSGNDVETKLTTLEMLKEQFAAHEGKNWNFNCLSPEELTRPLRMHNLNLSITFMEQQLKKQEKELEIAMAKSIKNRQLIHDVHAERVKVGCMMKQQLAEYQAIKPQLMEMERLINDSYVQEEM
UniProt Q9VS01: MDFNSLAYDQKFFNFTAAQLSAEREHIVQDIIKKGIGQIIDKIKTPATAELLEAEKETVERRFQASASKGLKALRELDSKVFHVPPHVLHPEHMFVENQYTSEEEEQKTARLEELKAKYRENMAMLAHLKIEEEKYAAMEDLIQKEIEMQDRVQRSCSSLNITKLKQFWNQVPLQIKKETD
UniProt Q9VYX4: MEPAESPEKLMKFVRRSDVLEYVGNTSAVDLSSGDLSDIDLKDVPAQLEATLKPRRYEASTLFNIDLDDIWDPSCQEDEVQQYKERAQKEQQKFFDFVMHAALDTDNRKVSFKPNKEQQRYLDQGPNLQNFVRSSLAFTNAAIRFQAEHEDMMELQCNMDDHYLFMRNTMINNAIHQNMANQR

Experiments:
[1] = target: DmNnf1a (Drosophila melanogaster) (UniProt Q7JZC9); test: cross-linking; about 0.8 mg/ml complex with 0.6 mM BS2G-H6/D6, 30 min at 37°C, digestion, LC-MS/MS, xQUEST (FDR < 0.05); both purified
[2] = target: DmNnf1b (Drosophila melanogaster) (UniProt Q8IPW3); test: as above
[3] = target: DmMis12 (Mis12 subunit of the Drosophila Mis12 complex) (Drosophila melanogaster) (UniProt Q9VS01); test: as above
[4] = target: DmMis12 (Mis12 subunit of the Drosophila Mis12 complex) (Drosophila melanogaster) (UniProt Q9VS01); test: co-expression in E. coli (soluble complex or incorporation into a complex); subunits or deletion mutants co-expressed from pST44 in E. coli; soluble complex looked for in the bacterial cell lysate

Row | binding [1] | binding [2] | binding [3] | binding [4] | Substance
1 | binds | binds | binds |  | DmKmn1 (Kmn1^Nsl1) (from UniProt Q9VYX4)
2 |  |  | binds | binds | DmNnf1a (from UniProt Q7JZC9)
3 |  |  | binds | binds | DmNnf1b (from UniProt Q8IPW3)

No constants are given. Whether binding was seen depends on the method and setting. Binding can be weak; no strength is given.
